{"source": "ChEMBL document CHEMBL4316593", "about": "(Eur J Med Chem, 2019)", "type_in_all_cases": "cell-based", "details_in_all_cases": "U-87MG ATCC", "key": {"[1]": {"assay": "Inhibition of RTK/PI3K/AKT/mTOR signaling in human U87 cells assessed as down regulation of EFR3B gene expression at cytotoxic IC50 measured after 48 hrs relative to control"}, "[2]": {"assay": "Inhibition of RTK/PI3K/AKT/mTOR signaling in human U87 cells assessed as down regulation of UPP1 gene expression at cytotoxic IC50 measured after 48 hrs relative to control"}, "[3]": {"assay": "Inhibition of RTK/PI3K/AKT/mTOR signaling in human U87 cells assessed as down regulation of THUMPD3-AS1 gene expression at cytotoxic IC50 measured after 48 hrs relative to control"}, "[4]": {"assay": "Inhibition of RTK/PI3K/AKT/mTOR signaling in human U87 cells assessed as down regulation of BSN gene expression at cytotoxic IC50 measured after 48 hrs relative to control"}, "[5]": {"assay": "Inhibition of RTK/PI3K/AKT/mTOR signaling in human U87 cells assessed as down regulation of BBS4 gene expression at cytotoxic IC50 measured after 48 hrs relative to control"}, "[6]": {"assay": "Inhibition of RTK/PI3K/AKT/mTOR signaling in human U87 cells assessed as down regulation of IMPA1 gene expression at cytotoxic IC50 measured after 48 hrs relative to control"}, "[7]": {"assay": "Inhibition of RTK/PI3K/AKT/mTOR signaling in human U87 cells assessed as down regulation of TBCE gene expression at cytotoxic IC50 measured after 48 hrs relative to control"}, "[8]": {"assay": "Inhibition of RTK/PI3K/AKT/mTOR signaling in human U87 cells assessed as down regulation of BLZF1 gene expression at cytotoxic IC50 measured after 48 hrs relative to control"}, "[9]": {"assay": "Inhibition of RTK/PI3K/AKT/mTOR signaling in human U87 cells assessed as down regulation of STAT1 gene expression at cytotoxic IC50 measured after 48 hrs relative to control"}, "[10]": {"assay": "Inhibition of RTK/PI3K/AKT/mTOR signaling in human U87 cells assessed as down regulation of CMC2 gene expression at cytotoxic IC50 measured after 48 hrs relative to control"}, "[11]": {"assay": "Inhibition of RTK/PI3K/AKT/mTOR signaling in human U87 cells assessed as down regulation of SLC9A1 gene expression at cytotoxic IC50 measured after 48 hrs relative to control"}, "[12]": {"assay": "Inhibition of RTK/PI3K/AKT/mTOR signaling in human U87 cells assessed as down regulation of STX12 gene expression at cytotoxic IC50 measured after 48 hrs relative to control"}, "[13]": {"assay": "Inhibition of RTK/PI3K/AKT/mTOR signaling in human U87 cells assessed as down regulation of ODF2 gene expression at cytotoxic IC50 measured after 48 hrs relative to control"}, "[14]": {"assay": "Inhibition of RTK/PI3K/AKT/mTOR signaling in human U87 cells assessed as down regulation of CSTB gene expression at cytotoxic IC50 measured after 48 hrs relative to control"}, "[15]": {"assay": "Inhibition of RTK/PI3K/AKT/mTOR signaling in human U87 cells assessed as down regulation of TAF12 gene expression at cytotoxic IC50 measured after 48 hrs relative to control"}, "[16]": {"assay": "Inhibition of RTK/PI3K/AKT/mTOR signaling in human U87 cells assessed as down regulation of POMP gene expression at cytotoxic IC50 measured after 48 hrs relative to control"}, "[17]": {"assay": "Inhibition of RTK/PI3K/AKT/mTOR signaling in human U87 cells assessed as down regulation of UHRF1BP1 gene expression at cytotoxic IC50 measured after 48 hrs relative to control"}, "[18]": {"assay": "Inhibition of RTK/PI3K/AKT/mTOR signaling in human U87 cells assessed as down regulation of TTC1 gene expression at cytotoxic IC50 measured after 48 hrs relative to control"}, "[19]": {"assay": "Inhibition of RTK/PI3K/AKT/mTOR signaling in human U87 cells assessed as down regulation of S100A10 gene expression at cytotoxic IC50 measured after 48 hrs relative to control"}, "[20]": {"assay": "Inhibition of RTK/PI3K/AKT/mTOR signaling in human U87 cells assessed as down regulation of MMADHC gene expression at cytotoxic IC50 measured after 48 hrs relative to control"}, "[21]": {"assay": "Inhibition of RTK/PI3K/AKT/mTOR signaling in human U87 cells assessed as down regulation of TXNRD1 gene expression at cytotoxic IC50 measured after 48 hrs relative to control"}, "[22]": {"assay": "Inhibition of RTK/PI3K/AKT/mTOR signaling in human U87 cells assessed as up regulation of olfactory receptor family 51 subfamily B member 4 gene expression at cytotoxic IC50 measured after 48 hrs relative to control"}, "[23]": {"assay": "Inhibition of RTK/PI3K/AKT/mTOR signaling in human U87 cells assessed as up regulation of G protein-coupled receptor class C group 5 member A gene expression at cytotoxic IC50 measured after 48 hrs relative to control"}, "[24]": {"assay": "Inhibition of RTK/PI3K/AKT/mTOR signaling in human U87 cells assessed as up regulation of leucine rich adaptor protein 1 like gene expression at cytotoxic IC50 measured after 48 hrs relative to control"}, "[25]": {"assay": "Inhibition of RTK/PI3K/AKT/mTOR signaling in human U87 cells assessed as up regulation of microtubule associated serine/threonine kinase 1 gene expression at cytotoxic IC50 measured after 48 hrs relative to control"}, "[26]": {"assay": "Inhibition of RTK/PI3K/AKT/mTOR signaling in human U87 cells assessed as up regulation of ceramide kinase gene expression at cytotoxic IC50 measured after 48 hrs relative to control"}, "[27]": {"assay": "Inhibition of RTK/PI3K/AKT/mTOR signaling in human U87 cells assessed as up regulation of haloacid dehalogenase like hydrolase domain containing 5 gene expression at cytotoxic IC50 measured after 48 hrs relative to control"}, "[28]": {"assay": "Inhibition of RTK/PI3K/AKT/mTOR signaling in human U87 cells assessed as up regulation of exosome component 2 gene expression at cytotoxic IC50 measured after 48 hrs relative to control"}, "[29]": {"assay": "Inhibition of RTK/PI3K/AKT/mTOR signaling in human U87 cells assessed as up regulation of MET proto-oncogene, receptor tyrosine kinase gene expression at cytotoxic IC50 measured after 48 hrs relative to control"}, "[30]": {"assay": "Inhibition of RTK/PI3K/AKT/mTOR signaling in human U87 cells assessed as up regulation of exocyst complex component 4 gene expression at cytotoxic IC50 measured after 48 hrs relative to control"}, "[31]": {"assay": "Inhibition of RTK/PI3K/AKT/mTOR signaling in human U87 cells assessed as up regulation of DENN domain containing 5A gene expression at cytotoxic IC50 measured after 48 hrs relative to control"}, "[32]": {"assay": "Inhibition of RTK/PI3K/AKT/mTOR signaling in human U87 cells assessed as up regulation of MARCKS gene expression at cytotoxic IC50 measured after 48 hrs relative to control"}}, "note": "The source gives many values for each of these; only a part stands here.", "data": [{"molecule": "CC(=O)C(=NNc1ccccc1C#N)C(C)=O", "values": [{"measurement": "log2FC", "setting": "[1]", "value": -2.81}, {"measurement": "log2FC", "setting": "[2]", "value": -2.49}, {"measurement": "log2FC", "setting": "[3]", "value": -2.45}, {"measurement": "log2FC", "setting": "[4]", "value": -2.26}, {"measurement": "log2FC", "setting": "[5]", "value": -1.2}, {"measurement": "log2FC", "setting": "[6]", "value": -1.06}, {"measurement": "log2FC", "setting": "[7]", "value": -0.953}, {"measurement": "log2FC", "setting": "[8]", "value": -0.928}, {"measurement": "log2FC", "setting": "[9]", "value": -0.834}, {"measurement": "log2FC", "setting": "[10]", "value": -0.813}, {"measurement": "log2FC", "setting": "[11]", "value": -0.801}, {"measurement": "log2FC", "setting": "[12]", "value": -0.726}, {"measurement": "log2FC", "setting": "[13]", "value": -0.685}, {"measurement": "log2FC", "setting": "[14]", "value": -0.661}, {"measurement": "log2FC", "setting": "[15]", "value": -0.59}, {"measurement": "log2FC", "setting": "[16]", "value": -0.567}, {"measurement": "log2FC", "setting": "[17]", "value": -0.561}, {"measurement": "log2FC", "setting": "[18]", "value": -0.542}, {"measurement": "log2FC", "setting": "[19]", "value": -0.47}, {"measurement": "log2FC", "setting": "[20]", "value": -0.395}, {"measurement": "log2FC", "setting": "[21]", "value": -0.383}, {"measurement": "log2FC", "setting": "[22]", "value": 1.55}, {"measurement": "log2FC", "setting": "[23]", "value": 1.41}, {"measurement": "log2FC", "setting": "[24]", "value": 1.33}, {"measurement": "log2FC", "setting": "[25]", "value": 1.27}, {"measurement": "log2FC", "setting": "[26]", "value": 1.18}, {"measurement": "log2FC", "setting": "[27]", "value": 1.03}, {"measurement": "log2FC", "setting": "[28]", "value": 0.795}, {"measurement": "log2FC", "setting": "[29]", "value": 0.717}, {"measurement": "log2FC", "setting": "[30]", "value": 0.71}, {"measurement": "log2FC", "setting": "[31]", "value": 0.698}, {"measurement": "log2FC", "setting": "[32]", "value": 0.527}]}]}
